{"source": "the supplement of paper PMC8728848", "assay_in_all_cases": "glycan array binding signal (z-score within array); higher = stronger binding", "details_in_all_cases": "glycan notation: IUPAC condensed, linker removed", "key": {"Gal3S6S(b1-4)GlcNAc": {"biological_target": "Gal3S6S(b1-4)GlcNAc", "summary_of_the_method": "(§1)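 Glycan array data came from 3228 arrays in the Consortium for Functional Glycomics database, and only arrays with an available protein sequence were kept. Glycan names were put into IUPAC-condensed notation, and columns mapping to the same glycan were averaged. The binding signal is a within-array Z-score, averaged across arrays of one protein sequence run at different concentrations or buffers and across linkers. A negative Z-score can be read as non-binding.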"}, "Gal3S6S(b1-4)GlcNAc6S": {"biological_target": "Gal3S6S(b1-4)GlcNAc6S", "summary_of_the_method": "as §1"}, "Gal4S(b1-4)GlcNAc": {"biological_target": "Gal4S(b1-4)GlcNAc", "summary_of_the_method": "as §1"}, "Gal4S6S(b1-4)GlcNAc": {"biological_target": "Gal4S6S(b1-4)GlcNAc", "summary_of_the_method": "as §1"}, "Gal6P(b1-4)GlcNAc": {"biological_target": "Gal6P(b1-4)GlcNAc", "summary_of_the_method": "as §1"}, "Gal6S(b1-3)GlcNAc": {"biological_target": "Gal6S(b1-3)GlcNAc", "summary_of_the_method": "as §1"}, "Gal6S(b1-3)GlcNAc6S": {"biological_target": "Gal6S(b1-3)GlcNAc6S", "summary_of_the_method": "as §1"}, "Gal6S(b1-4)Glc": {"biological_target": "Gal6S(b1-4)Glc", "summary_of_the_method": "as §1"}, "Gal6S(b1-4)Glc6S": {"biological_target": "Gal6S(b1-4)Glc6S", "summary_of_the_method": "as §1"}, "Gal6S(b1-4)GlcNAc": {"biological_target": "Gal6S(b1-4)GlcNAc", "summary_of_the_method": "as §1"}, "Gal6S(b1-4)GlcNAc6S": {"biological_target": "Gal6S(b1-4)GlcNAc6S", "summary_of_the_method": "as §1"}, "GalNAc(a1-3)Gal": {"biological_target": "GalNAc(a1-3)Gal", "summary_of_the_method": "as §1"}, "GalNAc(a1-3)GalNAc": {"biological_target": "GalNAc(a1-3)GalNAc", "summary_of_the_method": "as §1"}, "[1]": {"biological_target": "GalNAc(a1-3)GalNAc(b1-3)Gal(a1-4)Gal(b1-4)Glc", "summary_of_the_method": "as §1"}, "[2]": {"biological_target": "GalNAc(a1-3)GalNAc(b1-3)Gal(a1-4)Gal(b1-4)GlcNAc", "summary_of_the_method": "as §1"}, "GalNAc(b1-3)Gal": {"biological_target": "GalNAc(b1-3)Gal", "summary_of_the_method": "as §1"}, "[3]": {"biological_target": "GalNAc(b1-3)Gal(a1-4)Gal(b1-4)GlcNAc", "summary_of_the_method": "as §1"}, "[4]": {"biological_target": "GalNAc(b1-3)Gal(a1-4)Gal(b1-4)GlcNAc(b1-3)Gal(b1-4)Glc", "summary_of_the_method": "as §1"}, "[5]": {"biological_target": "GalNAc(b1-3)Gal(a1-6)Gal(b1-4)Glc", "summary_of_the_method": "as §1"}, "GalNAc(b1-3)GalNAc": {"biological_target": "GalNAc(b1-3)GalNAc", "summary_of_the_method": "as §1"}, "GalNAc(b1-3)GlcNAc": {"biological_target": "GalNAc(b1-3)GlcNAc", "summary_of_the_method": "as §1"}, "GalNAc(b1-4)Gal(b1-4)Glc": {"biological_target": "GalNAc(b1-4)Gal(b1-4)Glc", "summary_of_the_method": "as §1"}, "GalNAc(b1-4)GlcNAc": {"biological_target": "GalNAc(b1-4)GlcNAc", "summary_of_the_method": "as §1"}, "[6]": {"biological_target": "GalNAc(b1-4)GlcNAc(b1-2)Man", "summary_of_the_method": "as §1"}, "[7]": {"biological_target": "GalNAc(b1-4)GlcNAc(b1-2)Man(a1-3)[GalNAc(b1-4)GlcNAc(b1-2)Man(a1-6)]Man(b1-4)GlcNAc(b1-4)GlcNAc", "summary_of_the_method": "as §1"}, "[8]": {"biological_target": "GalNAc(b1-4)GlcNAc(b1-3)GalNAc(b1-4)GlcNAc", "summary_of_the_method": "as §1"}, "GalNAc(b1-4)GlcNAc6S": {"biological_target": "GalNAc(b1-4)GlcNAc6S", "summary_of_the_method": "as §1"}, "GalNAc(b1-6)GalNAc": {"biological_target": "GalNAc(b1-6)GalNAc", "summary_of_the_method": "as §1"}, "GalNAc3S(b1-4)GlcNAc": {"biological_target": "GalNAc3S(b1-4)GlcNAc", "summary_of_the_method": "as §1"}, "GalNAc3S(b1-4)GlcNAc3S": {"biological_target": "GalNAc3S(b1-4)GlcNAc3S", "summary_of_the_method": "as §1"}, "[9]": {"biological_target": "GalNAc3S(b1-4)[Fuc(a1-3)]GlcNAc", "summary_of_the_method": "as §1"}, "GalNAc4S6S(b1-4)GlcNAc": {"biological_target": "GalNAc4S6S(b1-4)GlcNAc", "summary_of_the_method": "as §1"}, "GalNAc6S(b1-4)GlcNAc": {"biological_target": "GalNAc6S(b1-4)GlcNAc", "summary_of_the_method": "as §1"}, "Glc(a1-4)Glc": {"biological_target": "Glc(a1-4)Glc", "summary_of_the_method": "as §1"}, "[10]": {"biological_target": "Glc(a1-4)Glc(a1-4)Glc(a1-4)Glc", "summary_of_the_method": "as §1"}, "Glc(a1-6)Glc(a1-6)Glc": {"biological_target": "Glc(a1-6)Glc(a1-6)Glc", "summary_of_the_method": "as §1"}, "[11]": {"biological_target": "Glc(a1-6)Glc(a1-6)Glc(a1-6)Glc", "summary_of_the_method": "as §1"}, "Glc(b1-4)Glc": {"biological_target": "Glc(b1-4)Glc", "summary_of_the_method": "as §1"}}, "note": "Some of the results follow.", "data": [{"binder": "Clec18Av1 (Homo sapiens), A5D8T8 (protein) MLHPETSPGRGHLLAVLLALLGTAWAEVWPPQLQEQAPMAGALNRKESFLLLSLHNRLRSWVQPPAADMRRLDWSDSLAQLAQARAALCGTPTPSLASGLWRTLQVGWNMQLLPAGLVSFVEVVSLWFAEGQRYSHAAGECARNATCTHYTQLVWATSSQLGCGRHLCSAGQAAIEAFVCAYSPRGNWEVNGKTIVPYKKGAWCSLCTASVSGCFKAWDHAGGLCEVPRNPCRMSCQNHGRLNISTCHCHCPPGYTGRYCQVRCSLQCVHGRFREEECSCVCDIGYGGAQCATKVHFPFHTCDLRIDGDCFMVSSEADTYYRARMKCQRKGGVLAQIKSQKVQDILAFYLGRLETTNEVIDSDFETRNFWIGLTYKTAKDSFRWATGEHQAFTSFAFGQPDNHGFGNCVELQASAAFNWNDQRCKTRNRYICQFAQEHISRWGPGS", "values": [{"measurement": "glycan array binding signal (z-score)", "setting": "Gal3S6S(b1-4)GlcNAc", "result": -0.757}, {"measurement": "glycan array binding signal (z-score)", "setting": "Gal3S6S(b1-4)GlcNAc6S", "result": -0.104}, {"measurement": "glycan array binding signal (z-score)", "setting": "Gal4S(b1-4)GlcNAc", "result": -0.586}, {"measurement": "glycan array binding signal (z-score)", "setting": "Gal4S6S(b1-4)GlcNAc", "result": -0.824}, {"measurement": "glycan array binding signal (z-score)", "setting": "Gal6P(b1-4)GlcNAc", "result": -0.61}, {"measurement": "glycan array binding signal (z-score)", "setting": "Gal6S(b1-3)GlcNAc", "result": -0.052}, {"measurement": "glycan array binding signal (z-score)", "setting": "Gal6S(b1-3)GlcNAc6S", "result": -0.393}, {"measurement": "glycan array binding signal (z-score)", "setting": "Gal6S(b1-4)Glc", "result": 0.34}, {"measurement": "glycan array binding signal (z-score)", "setting": "Gal6S(b1-4)Glc6S", "result": 1.21}, {"measurement": "glycan array binding signal (z-score)", "setting": "Gal6S(b1-4)GlcNAc", "result": -0.519}, {"measurement": "glycan array binding signal (z-score)", "setting": "Gal6S(b1-4)GlcNAc6S", "result": -0.233}, {"measurement": "glycan array binding signal (z-score)", "setting": "GalNAc(a1-3)Gal", "result": -0.251}, {"measurement": "glycan array binding signal (z-score)", "setting": "GalNAc(a1-3)GalNAc", "result": -0.279}, {"measurement": "glycan array binding signal (z-score)", "setting": "[1]", "result": 0.22}, {"measurement": "glycan array binding signal (z-score)", "setting": "[2]", "result": -0.772}, {"measurement": "glycan array binding signal (z-score)", "setting": "GalNAc(b1-3)Gal", "result": 1.67}, {"measurement": "glycan array binding signal (z-score)", "setting": "[3]", "result": 0.686}, {"measurement": "glycan array binding signal (z-score)", "setting": "[4]", "result": 0.052}, {"measurement": "glycan array binding signal (z-score)", "setting": "[5]", "result": 0.732}, {"measurement": "glycan array binding signal (z-score)", "setting": "GalNAc(b1-3)GalNAc", "result": -0.839}, {"measurement": "glycan array binding signal (z-score)", "setting": "GalNAc(b1-3)GlcNAc", "result": 2.24}, {"measurement": "glycan array binding signal (z-score)", "setting": "GalNAc(b1-4)Gal(b1-4)Glc", "result": -0.19}, {"measurement": "glycan array binding signal (z-score)", "setting": "GalNAc(b1-4)GlcNAc", "result": -0.281}, {"measurement": "glycan array binding signal (z-score)", "setting": "[6]", "result": 0.139}, {"measurement": "glycan array binding signal (z-score)", "setting": "[7]", "result": 1.73}, {"measurement": "glycan array binding signal (z-score)", "setting": "[8]", "result": -0.734}, {"measurement": "glycan array binding signal (z-score)", "setting": "GalNAc(b1-4)GlcNAc6S", "result": 2.3}, {"measurement": "glycan array binding signal (z-score)", "setting": "GalNAc(b1-6)GalNAc", "result": -0.525}, {"measurement": "glycan array binding signal (z-score)", "setting": "GalNAc3S(b1-4)GlcNAc", "result": -0.866}, {"measurement": "glycan array binding signal (z-score)", "setting": "GalNAc3S(b1-4)GlcNAc3S", "result": -0.866}, {"measurement": "glycan array binding signal (z-score)", "setting": "[9]", "result": 0.645}, {"measurement": "glycan array binding signal (z-score)", "setting": "GalNAc4S6S(b1-4)GlcNAc", "result": -0.779}, {"measurement": "glycan array binding signal (z-score)", "setting": "GalNAc6S(b1-4)GlcNAc", "result": 1.98}, {"measurement": "glycan array binding signal (z-score)", "setting": "Glc(a1-4)Glc", "result": -0.791}, {"measurement": "glycan array binding signal (z-score)", "setting": "[10]", "result": -0.829}, {"measurement": "glycan array binding signal (z-score)", "setting": "Glc(a1-6)Glc(a1-6)Glc", "result": -0.315}, {"measurement": "glycan array binding signal (z-score)", "setting": "[11]", "result": -0.849}, {"measurement": "glycan array binding signal (z-score)", "setting": "Glc(b1-4)Glc", "result": -0.268}]}]}
